# In PubChem BioAssay AID504834 (National Center for Advancing Translational Sciences (NCATS), 2011):
# About 22,000 (6.9%) of roughly 320,000 compounds were called active. Inconclusive results, whose numbers are uncertain, are shown with a selection of clear calls. Calls come from the whole dose curve; as a rule, active = well fitted inhibition curve with a large enough effect; inconclusive = small, poorly fitted or top-dose-only effect, or another doubt; inactive = no such curve, though single readings can be large or run the other way. A potency beside an inconclusive call is a rough fit, not a confirmed value.
# Test: Primary qHTS for delayed death inhibitors of the malarial parasite plastid, 96 hour incubation
# Conditions: P. falciparum luciferase reporter growth; series mostly up to 28.7 µM; activity change, negative = inhibition: at the top concentration
# Method in brief: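 96 h incubation, 37 C, 5% CO2, of luciferase-reporter P. falciparum-infected RBCs (2% hematocrit, 0.05% parasitemia final) with test compounds; endpoint luminescence.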
# % is set by controls: 0 for no effect and ±100 for the full control effect; potency is the fitted concentration of half-maximal effect.
Compound,Potency,"activity change, negative = inhibition"
CCCCCNc1nc(NCCCO)c(C#N)c2c1CN(C)CC2,active: 11.7 µM,
CCCN(CCC)CCCNC(=O)CCNS(=O)(=O)c1ccc(Br)cc1,,inactive: 11.1%
COc1ccc(Cl)cc1NC(=O)CN(C)C(=O)Cc1ccc(-c2ccccc2)cc1,"inconclusive: 18.5 µM [inhibitor, single point]",
O=S(=O)(c1cccs1)N1CCCc2cccc(O)c21,,inactive: 68.9%
CC1CCCC(C)N1S(=O)(=O)c1ccc(S(=O)(=O)NCCc2ccncc2)cc1 (stereo unspecified),"inconclusive: 18.5 µM [inhibitor, single point]",
COc1ccc(C2CC(=O)N3CN(c4ccc(C)c(Cl)c4)CSC3=C2C#N)cc1 (stereo unspecified),"inconclusive: 4.65 µM [inhibitor, partial curve]",
C#Cc1ccc(CN2CCC(N3CCC(C(=O)NCc4ccccn4)CC3)CC2)cc1,"inconclusive: 18.5 µM [inhibitor, single point]",
CC(Oc1ccc(F)cc1)C(=O)Nc1cc(S(=O)(=O)N2CCOCC2)ccc1N1CCCCC1 (stereo unspecified),active: 3.29 µM,
Cc1ccc(C)c(NC(=S)N2CCN(c3ccccn3)CC2)c1,"inconclusive: 18.5 µM [inhibitor, single point]",
CCOC(CNC(=O)CCc1c(C)nc2nc(C)nn2c1C)OCC,"inconclusive: 10.4 µM [inhibitor, single point]",
Cc1c(NC(=O)Nc2ccc(F)cc2F)c(=O)n(-c2ccccc2)n1C,,inactive: 15.2%
CC1CC(C)CN(CCCNC(=O)Cn2cccc2C(=O)c2ccccc2)C1 (stereo unspecified),,inactive: -0.604%
c1ccc2c(NC3=NCCS3)cccc2c1,,inactive: 10.7%
COc1cccc(CN(C)C(=O)c2ccc(NS(=O)(=O)c3ccc(F)cc3)cc2)c1OC,"inconclusive: 4.15 µM [inhibitor, partial curve]",
CN(C)c1ccc(C2C3=C(CCCC3=O)OC3=C2C(=O)CCC3)cc1,"inconclusive: 0.0037 µM [inhibitor, full curve, poor fit]",
COc1ccc(C(=O)N/C(=C\c2cn(C)c3ccccc23)C(=O)NCCCN2CCOCC2)cc1,"inconclusive: 18.5 µM [inhibitor, single point]",
CC(=O)NCCC(=O)Nc1nc(-c2ccc3ccccc3c2)cs1,,inactive: 3.11%
O=C(/C=C/c1cn(CC(O)CN2CCCCC2)c2ccccc12)c1ccccc1 (stereo unspecified),"inconclusive: 5.22 µM [inhibitor, partial curve, poor fit]",
O=C(C1CCN(S(=O)(=O)N2CCCCC2)CC1)N1CCCCC1,,inactive: 5.79%
COc1ccc(NC(C)=O)cc1NC(=O)CSc1nnc(-c2ccccc2)n1N,,inactive: 15.7%
CSc1nsc(SC)c1C(=O)NCCNS(=O)(=O)c1ccc(C)cc1,"inconclusive: 18.5 µM [inhibitor, single point]",
O=C(c1ccccc1F)N1CCCC(C(=O)N2CCN(c3ccccc3)CC2)C1 (stereo unspecified),"inconclusive: 8.28 µM [inhibitor, partial curve]",
COc1ccc(C2=NS(=O)(=O)N(C)C(C(=O)N3CCC(C)CC3)=C2)cc1,"inconclusive: 18.5 µM [inhibitor, single point]",
FC(F)(F)c1cccc(Cn2c3[n+](c4ccc(C(F)(F)F)cc42)CCCCC3)c1,"inconclusive: 1.17 µM [inhibitor, partial curve, poor fit]",

# Looked up above:
# Potency, COc1ccc(Cl)cc1NC(=O)CN(C)C(=O)Cc1ccc(-c2ccccc2)cc1 is entered as inconclusive: 18.5 µM [inhibitor, single point]
# Potency, CN(C)c1ccc(C2C3=C(CCCC3=O)OC3=C2C(=O)CCC3)cc1 is entered as inconclusive: 0.0037 µM [inhibitor, full curve, poor fit]
# Potency, CCCCCNc1nc(NCCCO)c(C#N)c2c1CN(C)CC2 is entered as active: 11.7 µM

# More compounds:

Compound,Potency,"activity change, negative = inhibition"
Cc1ccc(Cc2ccc(C(=O)NNC(N)=S)o2)cc1,"inconclusive: 5.86 µM [inhibitor, partial curve, poor fit]",
CC(Sc1ncnc2c1cnn2-c1ccccc1)C(=O)Nc1ccc(N2CCOCC2)cc1 (stereo unspecified),,inactive: 52.5%
O=C(NCc1ccccn1)[C@@H]1C[C@H]1[C@@H](NP(=O)(c1ccccc1)c1ccccc1)c1ccccc1,"inconclusive: 18.5 µM [inhibitor, single point]",
COc1ccccc1C(OC(=O)c1cccs1)C(=O)NCC1CCCO1 (stereo unspecified),"inconclusive: 0.0294 µM [inhibitor, full curve, poor fit]",
COc1ccc2[nH]c3c(c2c1)CCN1C(=O)N([C@@H](C)C(=O)NC2CC2)C(=O)[C@]31C,"inconclusive: 13.1 µM [inhibitor, single point]",
Cc1ccc(S(=O)(=O)NCC2(c3ccccc3)CCN(C)CC2)cc1,"inconclusive: 18.5 µM [inhibitor, single point]",
COC(=O)c1cc2ccsc2n1CC(=O)N(C)c1ccccc1,"inconclusive: 2.62 µM [inhibitor, partial curve, poor fit]",
CNC(=O)COC(=O)c1c2c(nc3ccccc13)CCC2,"inconclusive: 16.5 µM [inhibitor, single point]",
O=C(N/N=C/c1c[nH]c2ccccc12)C1COc2ccccc2O1 (stereo unspecified),active: 10.4 µM,
C=CCn1c(CNC(=O)c2ccco2)nnc1SCC(=O)c1ccc(F)cc1,"inconclusive: 0.104 µM [inhibitor, partial curve, poor fit]",
Cc1ccc(CNC(=O)/C=C/c2ccc(S(=O)(=O)N3CCOCC3)cc2)cc1,"inconclusive: 6.57 µM [inhibitor, partial curve, poor fit]",
CCCn1nc(C(=O)N2CCc3ccccc3C2)c2ccccc2c1=O,,inactive: 0.2%
O=C(CCCSc1nc2ccccc2[nH]1)N1CCN(c2ccccc2)CC1,"inconclusive: 1.85 µM [inhibitor, partial curve, poor fit]",
Cc1cc(=O)[nH]c2ccc(S(=O)(=O)N3CCOCC3)cc12,"inconclusive: 6.57 µM [inhibitor, partial curve, poor fit]",
CCn1c2ccccc2c2cc(NC(=O)C(C)Oc3ccc(OC)cc3)ccc21 (stereo unspecified),active: 5.86 µM,
Cc1cc(NC(=O)CSc2nc3c(c(=O)n2CCc2ccccc2)SC(C)C3)no1 (stereo unspecified),"inconclusive: 0.104 µM [inhibitor, full curve, poor fit]",
CC(=O)Nc1ccc(SCc2ncc(-c3ccccc3)o2)cc1,,inactive: 285%
Cc1nc2ccccc2c(N)c1C(=O)/C=C/c1ccccc1,"inconclusive: 18.5 µM [inhibitor, single point]",
CCc1nn2c(=O)cc(CSc3nc(C)cc(=O)[nH]3)nc2s1,"inconclusive: 18.5 µM [inhibitor, single point]",
CCCCN(C(=O)c1ccc([N+](=O)[O-])o1)c1c(N)n(CCCC)c(=O)[nH]c1=O,"inconclusive: 18.5 µM [inhibitor, single point]",
OC(CSc1ccc(F)cc1)CN1CCN(c2ccccc2)CC1 (stereo unspecified),,inactive: -139%
Cc1ccc(C(=O)Nc2ccncc2)cc1[N+](=O)[O-],"inconclusive: 10.4 µM [inhibitor, single point]",
O=C(NC(Cc1c[nH]c2ccccc12)c1nnc2n1CCCCC2)c1ccccc1 (stereo unspecified),,inactive: 41.2%
CN(C)CCNc1c2c(nc3nnnn13)CCCC2,"inconclusive: 18.5 µM [inhibitor, single point]",

Compound,Potency,"activity change, negative = inhibition"
COC(=O)c1c(-c2ccco2)csc1NC(=O)C1CC=CCC1C(=O)O (stereo unspecified),"inconclusive: 10.4 µM [inhibitor, single point]",
CCc1c(C)c2cc(Cl)c(O)c(CN3CCCC3)c2oc1=O,,inactive: 12.4%
O=c1[nH]c(NCc2ccco2)nnc1Cc1ccccc1Cl,,inactive: 9.89%
CCCc1cc(=O)[nH]c(SCC(=O)Nc2ccc(Br)cc2)n1,,inactive: 20.9%
Cc1ccccc1-n1c(-c2csc(C)c2C)n[nH]c1=S,,inactive: 4.47%
CC(C)(C)C(=O)Cn1c(=N)n(Cc2ccccc2Cl)c2ccccc21,"inconclusive: 16.5 µM [inhibitor, single point]",
CCN1CCN(C(=O)c2cc3cc(Cl)ccc3[nH]2)CC1,"inconclusive: 10.4 µM [inhibitor, single point]",
CCN1CCc2nc3ccccc3c(C(=O)Nc3ccc(C#N)cc3)c2C1,active: 2.62 µM,
Cc1c(Cc2ccccc2)c(=O)oc2cc(OCC(=O)c3ccccc3)ccc12,,inactive: -28%
CCn1cc(Cl)c(C(=O)Nc2cc(C(=O)OC)cc(C(=O)OC)c2)n1,"inconclusive: 13.1 µM [inhibitor, single point]",
COc1ccc(S(=O)(=O)N(C)c2ccc(C(=O)N3CCN(c4ccccc4)CC3)cc2)cc1OC,"inconclusive: 18.5 µM [inhibitor, single point]",
COCCN1Cc2cccc(C(=O)Nc3ccc(C)cc3)c2C1=O,"inconclusive: 13.1 µM [inhibitor, single point]",
O=C(Nc1nccs1)NC1CCCCC1,,inactive: 12.4%
Cc1noc(C)c1COc1ccccc1C(=O)N1CCN(S(=O)(=O)c2ccccc2C(F)(F)F)CC1,"inconclusive: 16.5 µM [inhibitor, partial curve, poor fit]",
Cc1ccc(NC(=O)CN2CCN(CCN=CC3=C(O)CC(C)(C)CC3=O)CC2)cc1,"inconclusive: 4.15 µM [inhibitor, single point]",
CCCCNS(=O)(=O)c1ccc2nc(SCC(=O)c3ccccc3OC)[nH]c2c1,,inactive: -27.4%
COc1cc(OC)c(C(=O)OCC(=O)Nc2c(C)n(C)n(-c3ccccc3)c2=O)cc1OC,"inconclusive: 1.47 µM [inhibitor, full curve, poor fit]",
COc1ccc2ccn(S(=O)(=O)c3ccccc3)c2c1,,inactive: -9.85%
COc1cccc(NC(=O)COc2nc3ccccc3nc2C)c1,,inactive: -15.8%
CCC(=O)N/C(N)=N/c1nc(C)c2cc(C)c(C)cc2n1,active: 1.65 µM,
CC(C)NC(=O)NC(=O)COC(=O)c1ccccc1O,,inactive: 16.9%
Nc1nc(COC(=O)CCC(=O)c2ccc(Cl)cc2)nc(Nc2ccccc2)n1,"inconclusive: 18.5 µM [inhibitor, single point]",
Cc1nnc(SCc2ccc(Cl)cc2)n1CC1CCCO1 (stereo unspecified),"inconclusive: 7.38 µM [inhibitor, partial curve, poor fit]",
